For at least one compound, name, drawing or mass did not settle the structure.
Tested on: Mino and Granta cells
Assay: Western blot PI3K and CDK4/cyclin D/Rb signaling in mantle cell lymphoma cells
Assay type: cell-based
Conditions: 24 hours
Excerpt: Cells were lysed in RIPA buffer and equal protein was loaded on SDS-PAGE gel followed by western blotting using p-AKT-Ser473, AKT, pRB-S780/811, RB, pP70S6K. β-actin served as loading control.

SMILES: CC(=O)c1c(C)c2cnc(Nc3ccc(N4CCNCC4)cn3)nc2n(C2CCCC2)c1=O [Palbociclib, reference compound]
- PI3K-AKT signaling (p-AKT), Western blot: only inhibits cyclin D/RB signaling
- cyclin D/RB signaling (phosphorylation of RB), Western blot: only inhibits cyclin D/RB signaling
